For at least one compound, name, drawing or mass did not settle the structure.
Experiments:
[1] = tested on: Yeast (Saccharomyces cerevisiae, Strain YPH499) mRNA transcripts; assay: Yeast mRNA response profiles measured with DNA microarrays (transcript measurement); assay type: cell-based; details: FIG. 5; Cyclosporin A vs combination of Cyclosporin A and FK506
Method: Experimental methods were described in Marton et al., 1998, Drug Target Validation And Identification of Secondary Drug Target Effects Using DNA Microarrays, NATURE-MEDICINE 4:1293-301, incorporated herein by reference for all purposes. Dose response curves are plotted only for about 50 genes with the largest responses. […] In this case, any concentration near or above about 1 μg/ml would be informative, and the choice could be refined based on knowledge of the significance of the set of genes that responds at the higher concentrations.
The following experimental methods were used for all the examples. Specific experimental design is described by the examples and their accompanying figures. The specific protocol was also described in Marton et al., 1998, Drug Target Validation And Identification of Secondary Drug Target Effects Using DNA Microarrays, NATURE-MEDICINE 4:1293-301. […]
Fluorescently-labeled cDNAs (2-6 μg) are resuspended in 4×SSC plus 1 μg/μl tRNA as carrier and filtered using […] filters (Millipore, Bedford, Mass.). […] Microarrays were scanned with a fluorescence laser-scanning device as previously described (Schena et al., 1995, Science 270:467-470; Schena et al., 1995, Proc. Natl. Acad. Sci. USA 93:[…]) and the results (including the positions of perturbations) are recorded.

Tet promoter = details: Tet system in yeast; Gari et al., 1997; cited from earlier work

SMILES | response when FK506 is added to a cell containing Cyclosporin [1] | level that gives maximal repression of promoter activity (Tet promoter) [micrograms/ml]
C=CC[C@@H]1/C=C(\C)C[C@H](C)C[C@H](OC)[C@H]2O[C@@](O)(C(=O)C(=O)N3CCCC[C@H]3C(=O)O[C@H](/C(C)=C/[C@@H]3CC[C@@H](O)[C@H](OC)C3)[C@H](C)[C@@H](O)CC1=O)[C@H](C)C[C@@H]2OC [FK506] | did not produce significant additional response | 
C[C@H]1c2cccc(O)c2C(=O)C2=C(O)[C@]3(O)C(=O)C(C(N)=O)=C(O)[C@@H](N(C)C)[C@@H]3[C@@H](O)[C@@H]21 [doxycycline] |  | 10

— patent publication US6370478B1, “Methods for drug interaction prediction using biological response profiles” (Rosetta Inpharmatics, Inc., priority 1998, dated 2002)
